The list does not hold the whole screen: its compounds were picked by chemical class. Not every dose and run of a compound is shown. T/C gives the treated animals as a percentage of the vehicle group. Some T/C values are marked as having no survivor count here; that says nothing about deaths at the dose. Schedule codes are those of the source, read here as Q, the interval in days (D) or hours (H), X, the number of doses. Some entries hold several experiments; the results are listed from low to high.

This assay concerns BDF1 mice, Adenocarcinoma 755 s.c., tumor weight T/C. In words: NCI In Vivo Anticancer Drug Screen. Data for tumor model Adenocarcinoma 755 (subcutaneous) in B6D2F1 (BDF1) mice. The settings on record: T/C endpoint: mean tumor weight, schedule: Q01DX011 (ip), vehicle: saline, evaluation day not shown, higher T/C = larger tumour. The procedure:
The antitumor activity of compounds was measured in mice bearing transplantable tumors. Survival or tumor size were measured and the results are expressed as the measurement made in the treated group (T) divided by the measurement made in the vehicle treated control group (C). The tumor model used in this assay is Adenocarcinoma 755 (subcutaneous) in B6D2F1 (BDF1) mice

With `ClCCNCCCCNCCCl`, the T/C is 136 % of control [survivor count not shown] (dose: 0.87 mg/kg/injection); 117 % of control [survivor count not shown] (dose: 1.75 mg/kg/injection); 54 % of control [survivor count not shown] (dose: 3.5 mg/kg/injection); 39 [survivor count not shown], 42 [survivor count not shown], 66 % of control [survivor count not shown] (dose: 7.0 mg/kg/injection); 36 [survivor count not shown] and 78 % of control [survivor count not shown] (dose: 14.0 mg/kg/injection); 14 [survivor count not shown] and 36 % of control [survivor count not shown] (dose: 28.0 mg/kg/injection). For the same compound, where the note is “dose: 56.0 mg/kg/injection”, the T/C was 8 % of control [survivor count not shown].

For the origin of these results see PubChem BioAssay AID180 (DTP/NCI, 2004).
